Data as given in PubChem BioAssay AID540276 (National Center for Advancing Translational Sciences (NCATS), 2011).
In all, about 300,000 compounds went through this assay and about 5,400 (1.8%) were called active. The shares of active, inactive and inconclusive entries below differ from those in the screen. The call rests on the fitted dose curve; tested in HEK293 cells. Where the call is inconclusive, the potency comes from a doubtful curve fit.

Test: qHTS for inhibitors of binding or entry into cells for Marburg Virus
Details: Marburg virus pseudotyped entry inhibition, cell reporter; series mostly up to 37.8 µM
Potency means the concentration at half of the fitted maximal effect.

Row | Compound | Potency
1 | CC1CC1C(=O)OCC(=O)NC(=O)NC12CC3CC(CC(C3)C1)C2 (stereo not drawn) | inconclusive: 35.5 µM [inhibitor, single point]
2 | C=CCn1c(CSc2nc3ccccc3s2)nnc1SCC(=O)NCc1ccccc1 | inconclusive: 0.891 µM [inhibitor, full curve]
3 | Cc1cc(C)cc(N(C(=O)c2sc(C)nc2C)C(C(=O)NC(C)(C)C)c2ccncc2)c1 (stereo not drawn) | inconclusive: 25.1 µM [activator, single point]
4 | O=C(COc1ccc2ccccc2c1Br)N1CCCC1 | inconclusive: 35.5 µM [inhibitor, single point]
5 | Cc1cc(N2CCCCC2)nc2ccc(NC(=O)c3ccc(Br)o3)cc12 | inconclusive: 14.6 µM [inhibitor, partial curve, poor fit]
6 | CCOC(=O)c1ccc(NC(=O)CCn2nnc3ccccc32)cc1 | inactive
7 | O=C(Nc1ccn(Cc2ccccc2F)n1)c1ccc(COc2ccc(Cl)cc2Cl)o1 | inconclusive: 35.5 µM [inhibitor, single point]
8 | Cc1ccc(O)c(C(=O)c2cnn(-c3ccccc3)c2)c1 | inconclusive: 2.51 µM [activator, full curve]
9 | COc1ccc(CN(C)C(=O)c2ccc(OCC(=O)N3CCOCC3)c(OC)c2)cc1 | inconclusive: 1.41 µM [inhibitor, partial curve, poor fit]
10 | CCOC(=O)C1CCN(S(=O)(=O)c2ccc3c(c2)CC(C)N3C(=O)C2CC2)CC1 (stereo not drawn) | inconclusive: 22.4 µM [inhibitor, single point]
11 | COc1cc(NC(=O)CSc2nnc(-c3ccncc3)n2C2CCCCC2)ccc1NC(=O)c1ccco1 | inactive
12 | Cc1ccc(-c2nc3ccccc3s2)cc1NC(=S)NC(=O)c1cccc2ccccc12 | inconclusive: 3.98 µM [activator, full curve]
13 | CSc1ccccc1OCc1cc(C(=O)NCCn2ccnc2C)no1 | inactive
14 | CC1(C)NC(=O)N(CC(O)COc2cc3ccccc3cc2C(=O)N2CCCCC2)C1=O (stereo not drawn) | inconclusive: 7.08 µM [activator, partial curve, poor fit]
15 | CCOCCCNc1nc(C)nc2c1nnn2Cc1c(F)cccc1Cl | inconclusive: 7.08 µM [inhibitor, partial curve, poor fit]
16 | CCCCCCCc1cc2ccccc2c2c(C(=O)OC)cc(C(=O)OC)n12 | inconclusive: 0.133 µM [activator, full curve, poor fit]
17 | O=C(c1ccc(C(=O)N2CCOCC2)nc1)N1CCOCC1 | inactive
18 | O=[N+]([O-])c1cccc(NC(=S)NCCc2ccccc2)c1 | inconclusive: 14.1 µM [inhibitor, single point]

A second format for part of the listing above:
Row	Compound	Potency
14	CC1(C)NC(=O)N(CC(O)COc2cc3ccccc3cc2C(=O)N2CCCCC2)C1=O (stereo not drawn)	inconclusive: 7.08 µM [activator, partial curve, poor fit]
15	CCOCCCNc1nc(C)nc2c1nnn2Cc1c(F)cccc1Cl	inconclusive: 7.08 µM [inhibitor, partial curve, poor fit]
